Test results from patent US20090019042A1, “Method Of Screening Compound Regulating The Translation Of Specific mRNA” (Takeda Pharmaceutical Company Limited, priority 2004, published 2009).
At least one structure is not confirmed: it was looked up by name or label, or the drawing left a doubt.

Experiments:
[1] = test system: Thymidilate Synthase mRNA (TS SL1); conditions: cited from earlier work
[2] = test system: PKC SL1.2; experiment: RNA FRET method; type: binding, human; conditions: concentration dependency test, FIG. 14

NC[C@H]1O[C@H](O[C@H]2[C@H](O)[C@@H](O[C@H]3O[C@H](CO)[C@@H](O)[C@H](N)[C@H]3O)[C@H](N)C[C@@H]2N)[C@H](O)[C@@H](O)[C@@H]1O [Kanamycin]
binding to motif in Thymidilate Synthase mRNA [1]: has been shown to bind to a motif found in Thymidilate Synthase mRNA (TS SL1) | selectivity with respect to PKC SL1.2 [2]: Selectivity for PKC SL1.2 was also observed
